The list shows a part of the results. These are further read-outs of the screen, such as a control signal, another cell line or another target. No call is given for them. Most of these compounds were active or inconclusive in the main read-out, so they are no random draw. The note in brackets gives the kind of curve behind each potency; many fits are weak.
Assay: qHTS Assay for Lipid Storage Modulators in Drosophila S3 Cells;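 on cell number change: cells counted by Cell Tracker Red CMTPX staining in the red channel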
Conditions: BODIPY lipid droplet fluorescence, 18-24 h; for cell number change: measured here: cell count max response, cells fed with added oleic acid
How it was run: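 Drosophila S3 cells got compounds at several concentrations plus oleic acid (400 uM solution). Laser-scanning cytometry with 488 nm excitation read lipid droplets at 500-530 nm and cells at 575-640 nm. Percent activity was relative to 20 uM Triacsin C.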

[1] = measured here: cell number channel AC50, cells fed with added oleic acid
[2] = measured here: lipid fluorescence (Fed channel) AC50, cells fed with added oleic acid

| Compound | cell number change [%] | AC50 [1] | AC50 [2] |
| --- | --- | --- | --- |
| Cc1ccc(CN2C(=O)CSC(C)C2=O)cc1 (centres undefined) | -17.6 | 0.103 µM [falling, full curve, poor fit] | – |
| COc1cc(C)c(NC(=O)C2CCN(S(=O)(=O)c3cccs3)CC2)cc1OC | 7.89 | – | 6.51 µM [rising, single point] |
| Cc1nn(Cc2ccccc2)c(Cl)c1C(=O)OC(C)C#N (centres undefined) | – | 0.103 µM [rising, single point] | 0.116 µM [rising, partial curve, poor fit] |
| COc1cc(OC)c(C(=O)N/N=C/c2ccoc2)cc1OC | -28.2 | – | 29.1 µM [rising, single point] |
| NC(=O)CN1CCOCCN(CC(N)=O)CCOCC1 | -8.97 | – | 4.11 µM [falling, full curve, poor fit] |
| O=C(NS(=O)(=O)Nc1ccc(Cl)cc1)c1c[nH]c2ccccc12 | -4.28 | – | – |
| CC/C(C)=N/Nc1ccc(S(=O)(=O)N2CCCC2)cc1[N+](=O)[O-] | 2.93 | – | 6.51 µM [falling, partial curve, poor fit] |
| O=C(NNc1c(F)c(F)cc(F)c1F)c1ccc(Cl)nc1 | 6.45 | – | 29.1 µM [rising, single point] |
| C=CCN1C(=O)/C(=C/c2ccc(-c3ccc(F)cc3)o2)SC1=S | 16.6 | – | – |
| COc1cc(C)c(Cl)cc1S(=O)(=O)n1cnc(C)c1 | 6.79 | – | 0.13 µM [rising, full curve, poor fit] |
| CC(=O)n1cc(-c2ccncc2)c2ccccc21 | 49.3 | 10.3 µM [rising, partial curve] | 3.66 µM [rising, full curve] |
| COc1cc(/C=N/NC(=O)c2cccc(NC(=O)c3ccccc3C)c2)ccc1O | -10.5 | – | – |
| O=C(O)CC1S/C(=N\N=C2CCCCCCC2)N(c2ccccc2)C1=O (centres undefined) | -41 | 7.31 µM [falling, single point] | – |
| CC1CCN(S(=O)(=O)c2ccc(NC(=O)CN3CCOCC3)cc2)CC1 | 15.6 | – | 6.51 µM [falling, partial curve] |
| O=C(CSCc1ccccc1)NC1CCSC1=O (centres undefined) | 15.5 | – | 18.4 µM [rising, partial curve] |
| O=C(Nc1ccc(Cl)cn1)c1ccc2c(c1)OCCO2 | -37.9 | 29.1 µM [falling, single point] | 25.9 µM [falling, partial curve, poor fit] |
| Cc1ccc(C)c2[nH]c(=O)c(C(c3nnnn3Cc3ccco3)N3CCc4ccccc4C3)cc12 (centres undefined) | -28.9 | – | 13 µM [falling, partial curve] |
| CCOc1ccc(S(=O)(=O)N(C)c2ccc(OCC(=O)NCc3cccnc3)cc2)cc1 | – | – | 29.1 µM [rising, single point] |
| O=C(C1=C[C@@H](c2ccc(C(F)(F)F)cc2)C[C@@H](OCCCCO)O1)N1CCN(Cc2ccccc2)CC1 | -13.5 | – | 29.1 µM [falling, single point] |

| Compound | cell number change [%] | AC50 [1] | AC50 [2] |
| --- | --- | --- | --- |
| CC(=O)c1sc(NC(=O)c2cc3c(C)nn(-c4ccccc4)c3s2)nc1C | 3.33 | – | 29.1 µM [rising, single point] |
| CCOc1ccc(C(=O)Nc2ccccc2N2CCN(C(=O)c3ccccc3)CC2)cc1[N+](=O)[O-] | -41.2 | 1.46 µM [falling, full curve] | 0.517 µM [falling, full curve] |
| O=C(CSc1nnc(C2CC2)n1-c1ccccc1)NCc1ccco1 | 12.7 | 0.103 µM [rising, full curve, poor fit] | – |
| COCCNC(=O)C(c1ccc(Cl)cc1)N(C(=O)CCC(=O)Nc1ccccn1)C1CCCC1 (centres undefined) | 9.76 | – | 20.6 µM [rising, single point] |
| CC(C(=O)NC(=O)NC1CCCCC1)N1CCN(c2ccc(O)cc2)CC1 (centres undefined) | 4.48 | – | 29.1 µM [falling, single point] |
| Cc1cc(C)nc(SCC(=O)N/N=C/c2cccn2-c2ccc(O)cc2)n1 | 39.4 | 3.66 µM [rising, full curve] | 6.51 µM [rising, single point] |
| Cc1ccccc1/C=N/Nc1nc2ccccc2c(=O)n1O | 45 | 1.84 µM [rising, partial curve] | 2.06 µM [rising, partial curve] |
| COc1ccc(C)cc1S(=O)(=O)N(CC(=O)NCc1ccco1)c1ccc(C)cc1 | – | – | 0.116 µM [falling, full curve, poor fit] |
| C/C(=C\C(=S)Nc1ccccc1)Nc1ccc2ccccc2c1 | -17.3 | 3.66 µM [rising, partial curve] | 3.66 µM [rising, partial curve] |
| O=C(COc1ccc2ccccc2c1)N/N=C/c1ccccn1 | 11.6 | 6.51 µM [rising, single point] | – |
| CC(C)CNC(=O)c1cccc(Cn2cc(Cl)cn2)c1 | -5.86 | 0.13 µM [falling, full curve, poor fit] | – |
| CCOC(=O)c1c(N)nn(C(C)=O)c1-c1ccccc1 | – | – | 1.16 µM [rising, partial curve] |
| CC(OC(=O)CNC(=O)c1ccc(Cl)c(Cl)c1)C(=O)N1CCOCC1 (centres undefined) | 8 | – | – |
| CCOC(=O)/C=C/C(=O)Nc1ccccc1-c1ccccc1NC(=O)/C=C/C(=O)OCC | -0.114 | – | – |
| Cc1ccc(N/C=C/C(=O)c2cccs2)cc1 | 26.4 | – | 23.1 µM [rising, single point] |
| CN(CC(=O)Nc1ccccc1Br)C(=O)c1ccccc1-c1nc2ccccc2s1 | -44.2 | 16.4 µM [falling, partial curve, poor fit] | 0.651 µM [falling, partial curve] |
| Cc1ncc(CO)c2cc(C(=O)Nc3cccc(F)c3)c(=Nc3cccc(C(N)=O)c3)oc12 | 57.7 | 29.1 µM [rising, single point] | – |
| Clc1ccc(-n2c(SCc3nc4ccccc4[nH]3)nnc2-c2ccncc2)cc1 | 16 | – | 0.00461 µM [rising, full curve, poor fit] |
| COc1cc(/C(C)=N/N2CCN(Cc3ccc(C)cc3)CC2)ccc1O | -12.8 | – | – |

A different layout for part of the listing above:
Compound	cell number change [%]	AC50 [1]	AC50 [2]
CN(CC(=O)Nc1ccccc1Br)C(=O)c1ccccc1-c1nc2ccccc2s1	-44.2	16.4 µM [falling, partial curve, poor fit]	0.651 µM [falling, partial curve]
Cc1ncc(CO)c2cc(C(=O)Nc3cccc(F)c3)c(=Nc3cccc(C(N)=O)c3)oc12	57.7	29.1 µM [rising, single point]	–
Clc1ccc(-n2c(SCc3nc4ccccc4[nH]3)nnc2-c2ccncc2)cc1	16	–	0.00461 µM [rising, full curve, poor fit]

Remaining list, next part:

| Compound | cell number change [%] | AC50 [1] | AC50 [2] |
| --- | --- | --- | --- |
| COc1cc(NC(=O)c2cc([N+](=O)[O-])ccc2NC(=O)CN2CCN(c3ccccn3)CC2)cc(OC)c1 | 22.2 | – | 29.1 µM [rising, partial curve, poor fit] |
| CNC(=O)c1ccccc1Sc1ccccc1CO | 41 | 29.1 µM [rising, single point] | 29.1 µM [rising, single point] |
| COc1ccc(C2N(c3cc(Cl)ccc3OC)C(=O)C3CCCN32)cc1OC (centres undefined) | 20.1 | – | 0.146 µM [falling, full curve] |
| NNC(=O)COc1ccc(C(F)(F)F)cc1 | -45.2 | 29.1 µM [falling, single point] | 29.1 µM [falling, single point] |
| O=C(C1CCCO1)N1N=C(c2ccc(Br)cc2)CC1c1ccco1 (centres undefined) | 7.83 | 0.651 µM [falling, single point] | 2.91 µM [rising, full curve] |
| Cc1ccccc1C(=O)N1CCC(C(=O)Nc2ccc(S(=O)(=O)N3CCCCC3)cc2)CC1 | -37.4 | 16.4 µM [falling, single point] | 10.3 µM [falling, partial curve] |
| Cc1cc(S(=O)(=O)Nc2ccc(C(=O)NCc3ccncc3)cc2)ccc1F | 30.6 | 20.6 µM [rising, single point] | 29.1 µM [rising, single point] |
| Cc1cccc(OCC(=O)Nc2cccc(-c3nnc(-c4ccccc4)o3)c2)c1C | 25.1 | – | 6.51 µM [rising, partial curve] |
| Cc1ccc(OCC(=O)Nc2cccc(S(=O)(=O)N3CCCCCC3)c2)cc1C | 19.8 | – | 1.46 µM [rising, full curve, poor fit] |
| C/C(=N\NC(=O)c1nnn(-c2nonc2N)c1CSc1ccc(C)cc1)c1ccco1 | 112 | 6.51 µM [falling, partial curve] | 29.1 µM [falling, partial curve] |
| O=c1[nH]c2ccc(S(=O)(=O)NCc3ccccn3)cc2s1 | 67.6 | 20.6 µM [rising, single point] | – |
| O=C(c1ccc2ccccc2c1)N1CCN(c2ccc([N+](=O)[O-])c(N3CCOCC3)c2)CC1 | -8.81 | – | 16.4 µM [rising, partial curve, poor fit] |
| CCCN1/C(=C(/C#N)C2=NS(=O)(=O)c3ccccc32)N(C)c2ccccc21 | -1.21 | – | 18.4 µM [rising, single point] |
| COc1cc(/C=C2/C(=O)NN(c3cccc(C)c3)C2=O)ccc1OC(=O)c1ccco1 | -15.5 | – | 16.4 µM [falling, single point] |
| O=C(Nc1ccc(S(=O)(=O)NC2CCCC2)cc1)c1cnccn1 | – | – | 0.103 µM [rising, full curve, poor fit] |
| Cc1cc(C)nc(N2CCCC(C(=O)NCCc3cccc(F)c3)C2)n1 (centres undefined) | 13.1 | – | 2.06 µM [rising, partial curve] |
| Cc1ccc2nc(-c3ccccn3)cc(C(=O)NC3CCN(C)CC3)c2c1 | – | – | 1.16 µM [falling, full curve, poor fit] |
| CCOCCCNC(=O)c1cccs1 | – | – | 5.17 µM [falling, partial curve, poor fit] |
| O=C(Nc1ccccc1-c1nc2ccccc2[nH]c1=O)c1cccs1 | – | – | 0.58 µM [falling, full curve] |

From PubChem BioAssay AID2685 (National Center for Advancing Translational Sciences (NCATS), 2010)
